In US9550752B2, “Triazolinthione derivatives” (priority 2013, dated 2017):
Some entries share one result that the patent states for a list of compounds.

What was measured:
[1] = tested on: Blumeria graminis f.sp. hordei; assay: Blumeria test (barley)/preventive; type: in vivo; details: 500 ppm of active ingredient, preventive, evaluated 7 days after inoculation
[2] = tested on: Phakopsora pachyrhizi; assay: Phakopsora test (soybeans)/preventive; type: in vivo; details: 100 ppm of active ingredient, preventive, evaluated 7 days after inoculation
[3] = tested on: Fusarium graminearum; type: in vivo; details: 500 ppm of active ingredient; barley, preventive; evaluated 5 days after inoculation
[4] = tested on: Fusarium culmorum; assay: Fusarium culmorum-test (wheat)/preventive; type: in vivo; details: 500 ppm of active ingredient, preventive, evaluated 5 days after inoculation
[5] = tested on: Venturia inaequalis; assay: Venturia test (apples)/preventive; type: in vivo; details: 100 ppm of active ingredient, preventive, evaluated 10 days after inoculation
[6] = tested on: Fusarium nivale (var. majus); assay: Fusarium nivale (var. majus)-test (wheat)/preventive; type: in vivo; details: 500 ppm of active ingredient, preventive, evaluated 5 days after inoculation
[7] = tested on: Puccinia recondita; assay: In vivo preventive test on Puccinia recondita (brown rust on wheat); details: wheat plants, preventive spray, evaluated 11 days after inoculation
[8] = tested on: Uromyces appendiculatus; assay: In vivo preventive test on Uromyces appendiculatus (bean rust); details: bean plants, preventive spray, evaluated 11 days after inoculation
[9] = tested on: Septoria tritici; assay: In vivo preventive test on Septoria tritici (leaf spot on wheat); details: wheat plants, preventive spray, evaluated 24 days after inoculation
[10] = tested on: Sphaerotheca fuliginea; assay: In vivo preventive test on Sphaerotheca fuliginea (powdery mildew on cucurbits); details: gherkin plants, preventive spray, evaluated 15 days after inoculation
[11] = tested on: Leptosphaeria nodorum; assay: Leptosphaeria nodorum test (wheat)/preventive; type: in vivo; details: 500 ppm of active ingredient, preventive, evaluated 8 days after inoculation
[12] = tested on: Botrytis cinerea; assay: In vivo preventive test on Botrytis cinerea (grey mould); details: 500 ppm of active ingredient; gherkin plants, preventive spray; evaluated 4 to 5 days after inoculation
Protocol: The young plants of gherkin are treated by spraying the active ingredient prepared as described above. Control plants are treated only with an aqueous solution of acetone/Dimethyl sulfoxide/tween®. After 24 hours, the plants are contaminated by spraying the leaves with an aqueous suspension of Botrytis cinerea spores.

Measured: biological efficacy

CC(C)(C)C(O)(Cc1cccnc1Cl)Cn1ncnc1S (stereo not drawn) [Example I-1]
≥ 90%: [1] | [2] | [3] | [4] | [5] | [6]

OC(Cc1ccncc1Cl)(Cn1nc[nH]c1=S)C1(Cl)CC1 (stereo not drawn) [Example I-3, 2-[2-(1-chlorocyclopropyl)-3-(3-chloropyridin-4-yl)-2-hydroxypropyl]-2,4-dihydro-3H-1,2,4-triazole-3-thione]
≥ 90%: [3]

OC(Cc1cccnc1Cl)(Cn1ncnc1S)C1(Cl)CC1 (stereo not drawn) [Example I-4]
≥ 90%: [1] | [2] | [3] | [4] | [7]; 100 ppm of active ingredient | [8]; 100 ppm of active ingredient | [5] | [9]; 100 ppm of active ingredient | [10]; 100 ppm of active ingredient | [6]

OC(Cc1cccnc1Cl)(Cn1ncnc1S)C1(F)CC1 (stereo not drawn) [Example I-11]
≥ 90%: [1] | [2] | [11] | [3] | [4] | [8]; 100 ppm of active ingredient | [5] | [10]; 100 ppm of active ingredient | [6]

OC(Cc1ccncc1Cl)(Cn1ncnc1S)C1(F)CC1 (stereo not drawn) [Example I-13]
≥ 90%: [1] | [11] | [3] | [7]; 100 ppm of active ingredient | [8]; 100 ppm of active ingredient | [5] | [10]; 100 ppm of active ingredient | [6]

CC1(C(O)(Cc2cccnc2Cl)Cn2ncnc2S)CC1 (stereo not drawn) [Example I-15]
≥ 90%: [1] | [3] | [7]; 500 ppm of active ingredient | [9]; 500 ppm of active ingredient | [10]; 500 ppm of active ingredient | [6]

CC1(C(O)(Cc2ccncc2Cl)Cn2ncnc2S)CC1 (stereo not drawn) [Example I-16]
≥ 90%: [1] | [11] | [3] | [12] | [7]; 500 ppm of active ingredient | [8]; 500 ppm of active ingredient | [9]; 500 ppm of active ingredient | [10]; 500 ppm of active ingredient | [6]

CCC(C)(C)C(O)(Cc1ccncc1F)Cn1ncnc1S (stereo not drawn) [Example I-17]
≥ 90%: [1] | [11] | [3] | [12] | [7]; 500 ppm of active ingredient | [8]; 500 ppm of active ingredient | [9]; 500 ppm of active ingredient | [10]; 500 ppm of active ingredient | [6]

CC(C)(C)C(O)(Cc1ccncc1F)Cn1ncnc1S (stereo not drawn) [Example I-18]
≥ 90%: [1] | [3] | [4] | [7]; 500 ppm of active ingredient | [8]; 500 ppm of active ingredient | [9]; 500 ppm of active ingredient | [10]; 500 ppm of active ingredient | [6]

OC(Cc1ccncc1F)(Cn1ncnc1S)C1(Cl)CC1 (stereo not drawn) [Example I-19]
≥ 90%: [1] | [2] | [11] | [3] | [4] | [12] | [7]; 500 ppm of active ingredient | [8]; 500 ppm of active ingredient | [9]; 500 ppm of active ingredient | [10]; 500 ppm of active ingredient | [6]

CCC(C)(C)C(O)(Cc1ccncc1Cl)Cn1ncnc1S (stereo not drawn) [Example I-20]
≥ 90%: [6]

OC(Cc1ccncc1F)(Cn1ncnc1S)C1(F)CC1 (stereo not drawn) [Example I-21]
≥ 90%: [1] | [2] | [3] | [12] | [7]; 500 ppm of active ingredient | [8]; 500 ppm of active ingredient | [9]; 500 ppm of active ingredient | [10]; 500 ppm of active ingredient | [6]
